Laboratory results taken from paper PMC11658694, “Acetylation of the yeast Hsp40 chaperone protein Ydj1 fine-tunes proteostasis and translational fidelity” (PLOS Genetics, 2024).
Results are given in words; binding and its absence hold for the method and conditions named. In cells and extracts the contact can be indirect. Some entries that bind do so weakly or less than the wild type.

Protein sequences, listed by entry. Tags and fused reporters are not part of them. Lines headed by an entry give the natural chain unless they say otherwise; changes in a name come on top. Chains listed by the source or under a name are the forms on record and can include a tag or linker.
UniProt P25491: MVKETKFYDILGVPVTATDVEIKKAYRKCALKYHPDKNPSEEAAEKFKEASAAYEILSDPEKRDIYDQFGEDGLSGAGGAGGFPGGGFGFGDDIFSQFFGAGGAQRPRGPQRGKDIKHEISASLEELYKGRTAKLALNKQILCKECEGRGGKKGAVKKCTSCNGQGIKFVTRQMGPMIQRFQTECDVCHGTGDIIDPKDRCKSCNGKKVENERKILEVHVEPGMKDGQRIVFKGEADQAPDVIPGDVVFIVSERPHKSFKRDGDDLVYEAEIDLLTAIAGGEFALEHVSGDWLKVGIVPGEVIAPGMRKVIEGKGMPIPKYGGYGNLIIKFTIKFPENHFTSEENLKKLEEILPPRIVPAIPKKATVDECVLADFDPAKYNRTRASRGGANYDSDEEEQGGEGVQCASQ
Ydj1-FLAG 6KR (S. cerevisiae (budding yeast)) (P25491, form named): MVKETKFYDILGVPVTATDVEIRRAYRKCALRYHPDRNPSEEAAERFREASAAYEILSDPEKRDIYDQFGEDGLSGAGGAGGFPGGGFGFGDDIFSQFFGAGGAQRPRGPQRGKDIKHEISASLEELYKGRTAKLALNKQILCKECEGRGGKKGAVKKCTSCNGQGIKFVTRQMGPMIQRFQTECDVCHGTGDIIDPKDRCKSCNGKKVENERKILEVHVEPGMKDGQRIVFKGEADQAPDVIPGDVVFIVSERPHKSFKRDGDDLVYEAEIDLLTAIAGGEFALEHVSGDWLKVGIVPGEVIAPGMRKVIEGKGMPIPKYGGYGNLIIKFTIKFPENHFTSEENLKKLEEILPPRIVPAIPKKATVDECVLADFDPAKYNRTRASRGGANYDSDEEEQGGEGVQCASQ
UniProt P10591: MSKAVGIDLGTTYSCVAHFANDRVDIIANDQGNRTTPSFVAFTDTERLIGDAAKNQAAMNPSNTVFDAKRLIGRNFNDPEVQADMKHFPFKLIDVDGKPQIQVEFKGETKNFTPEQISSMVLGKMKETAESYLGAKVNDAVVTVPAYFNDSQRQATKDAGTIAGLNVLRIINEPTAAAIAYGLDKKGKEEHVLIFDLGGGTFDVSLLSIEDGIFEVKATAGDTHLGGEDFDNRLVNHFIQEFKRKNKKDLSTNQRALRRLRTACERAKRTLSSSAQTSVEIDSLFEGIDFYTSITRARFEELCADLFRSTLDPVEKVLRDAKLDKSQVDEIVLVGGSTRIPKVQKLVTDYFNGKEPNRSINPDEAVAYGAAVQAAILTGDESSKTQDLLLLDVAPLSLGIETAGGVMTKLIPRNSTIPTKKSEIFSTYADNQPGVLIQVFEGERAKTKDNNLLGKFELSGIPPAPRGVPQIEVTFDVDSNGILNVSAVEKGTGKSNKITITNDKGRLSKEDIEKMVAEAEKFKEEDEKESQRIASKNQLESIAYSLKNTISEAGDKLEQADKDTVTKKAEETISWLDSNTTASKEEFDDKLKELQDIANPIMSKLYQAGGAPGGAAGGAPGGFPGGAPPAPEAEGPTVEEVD

Key:
[1] = biological target: Ydj1-FLAG 6KR (S. cerevisiae (budding yeast)) (UniProt P25491); assay: co-IP; Ydj1-FLAG held on anti-FLAG M2 magnetic beads from yeast extract; 50 mM Na-phosphate pH 8.0, 300 mM NaCl, 0.01% Tween-20, 4°C overnight; eluted with 3X FLAG peptide; blots with antisera to Ssa1, FLAG or the Glu tag
[2] = biological target: Ydj1-FLAG wild-type (S. cerevisiae (budding yeast)) (UniProt P25491); assay: as above

binding [1]: binds
binding [2]: binds
Substance: Ssa1 (endogenous, yeast) (from UniProt P10591 1-642)
